Sequences of proteins named here, by UniProt entry; tags and fusion partners are left off. A change or cut given only in a name is not applied to a line headed by its entry.
UniProt O96971: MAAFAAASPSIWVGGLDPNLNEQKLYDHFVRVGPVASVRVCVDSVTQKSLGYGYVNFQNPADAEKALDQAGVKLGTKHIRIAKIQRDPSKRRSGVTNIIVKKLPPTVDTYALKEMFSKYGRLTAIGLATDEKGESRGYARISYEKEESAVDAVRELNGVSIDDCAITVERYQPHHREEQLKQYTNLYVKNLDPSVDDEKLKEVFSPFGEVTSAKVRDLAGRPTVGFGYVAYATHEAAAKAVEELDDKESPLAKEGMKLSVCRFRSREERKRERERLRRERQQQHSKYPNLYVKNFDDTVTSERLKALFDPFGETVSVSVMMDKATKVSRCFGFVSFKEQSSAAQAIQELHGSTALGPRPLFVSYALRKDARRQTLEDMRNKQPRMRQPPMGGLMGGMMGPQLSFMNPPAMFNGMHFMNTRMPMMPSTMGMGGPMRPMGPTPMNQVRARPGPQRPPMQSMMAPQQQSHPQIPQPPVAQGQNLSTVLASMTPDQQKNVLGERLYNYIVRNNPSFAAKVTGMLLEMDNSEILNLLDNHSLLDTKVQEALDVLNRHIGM
UniProt Q38E63: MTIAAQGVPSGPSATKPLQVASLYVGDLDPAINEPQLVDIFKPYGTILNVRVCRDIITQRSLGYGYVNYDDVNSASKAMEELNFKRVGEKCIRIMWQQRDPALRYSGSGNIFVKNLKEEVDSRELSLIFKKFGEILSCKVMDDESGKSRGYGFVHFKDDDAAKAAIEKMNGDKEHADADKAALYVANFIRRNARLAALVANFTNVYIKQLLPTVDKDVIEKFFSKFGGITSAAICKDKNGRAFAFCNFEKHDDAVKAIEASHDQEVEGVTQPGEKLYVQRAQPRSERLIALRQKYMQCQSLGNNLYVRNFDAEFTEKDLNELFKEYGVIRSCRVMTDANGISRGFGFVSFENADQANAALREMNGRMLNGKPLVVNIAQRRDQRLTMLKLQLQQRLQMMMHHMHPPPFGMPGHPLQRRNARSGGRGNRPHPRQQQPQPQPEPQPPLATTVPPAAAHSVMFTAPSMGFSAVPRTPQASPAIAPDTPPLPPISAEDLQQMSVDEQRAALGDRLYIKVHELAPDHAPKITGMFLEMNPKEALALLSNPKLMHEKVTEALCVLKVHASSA
UniProt Q38B99: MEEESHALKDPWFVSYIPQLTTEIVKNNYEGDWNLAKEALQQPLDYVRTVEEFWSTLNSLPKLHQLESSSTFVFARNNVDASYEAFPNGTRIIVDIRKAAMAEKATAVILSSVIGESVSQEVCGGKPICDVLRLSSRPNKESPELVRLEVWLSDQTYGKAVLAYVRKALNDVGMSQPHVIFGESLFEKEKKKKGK
UniProt Q38E49: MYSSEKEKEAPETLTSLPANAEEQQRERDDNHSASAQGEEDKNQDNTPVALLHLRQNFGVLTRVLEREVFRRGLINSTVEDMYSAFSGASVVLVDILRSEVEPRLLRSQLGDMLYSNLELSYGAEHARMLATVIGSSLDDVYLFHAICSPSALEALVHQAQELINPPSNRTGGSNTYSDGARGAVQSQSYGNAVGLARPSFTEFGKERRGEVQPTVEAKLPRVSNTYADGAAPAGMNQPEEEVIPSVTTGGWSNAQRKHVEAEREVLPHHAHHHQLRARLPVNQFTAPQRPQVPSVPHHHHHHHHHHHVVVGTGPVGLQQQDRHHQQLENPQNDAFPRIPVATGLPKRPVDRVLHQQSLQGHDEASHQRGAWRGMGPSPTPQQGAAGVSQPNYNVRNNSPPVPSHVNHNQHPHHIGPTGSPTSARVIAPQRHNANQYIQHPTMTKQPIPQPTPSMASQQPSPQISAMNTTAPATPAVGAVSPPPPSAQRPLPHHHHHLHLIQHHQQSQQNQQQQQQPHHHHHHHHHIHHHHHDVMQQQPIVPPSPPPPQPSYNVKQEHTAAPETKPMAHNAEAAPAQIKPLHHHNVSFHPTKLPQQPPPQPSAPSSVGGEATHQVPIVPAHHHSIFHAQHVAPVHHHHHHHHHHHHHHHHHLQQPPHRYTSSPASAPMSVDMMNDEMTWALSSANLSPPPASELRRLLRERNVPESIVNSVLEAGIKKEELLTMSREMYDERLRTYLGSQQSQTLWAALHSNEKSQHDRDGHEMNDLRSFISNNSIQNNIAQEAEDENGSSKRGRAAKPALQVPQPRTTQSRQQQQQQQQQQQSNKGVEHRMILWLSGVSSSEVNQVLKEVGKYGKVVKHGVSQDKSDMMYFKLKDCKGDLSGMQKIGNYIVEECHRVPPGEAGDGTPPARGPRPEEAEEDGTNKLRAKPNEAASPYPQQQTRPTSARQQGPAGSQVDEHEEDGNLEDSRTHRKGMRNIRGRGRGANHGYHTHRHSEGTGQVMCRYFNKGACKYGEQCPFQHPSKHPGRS
UniProt Q386W1: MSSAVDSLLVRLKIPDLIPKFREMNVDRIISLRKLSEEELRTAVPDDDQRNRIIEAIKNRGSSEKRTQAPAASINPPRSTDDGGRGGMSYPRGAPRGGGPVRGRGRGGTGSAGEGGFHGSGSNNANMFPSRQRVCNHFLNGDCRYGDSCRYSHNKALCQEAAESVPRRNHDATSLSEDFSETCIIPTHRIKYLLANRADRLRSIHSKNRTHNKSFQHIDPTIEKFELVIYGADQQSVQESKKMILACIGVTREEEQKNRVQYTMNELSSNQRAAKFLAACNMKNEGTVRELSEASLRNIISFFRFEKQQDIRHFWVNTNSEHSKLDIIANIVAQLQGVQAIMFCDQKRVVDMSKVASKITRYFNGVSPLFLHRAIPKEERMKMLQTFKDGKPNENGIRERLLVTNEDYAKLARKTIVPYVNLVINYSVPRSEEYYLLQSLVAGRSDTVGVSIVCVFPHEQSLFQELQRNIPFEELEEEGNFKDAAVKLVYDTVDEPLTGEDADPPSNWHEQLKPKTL
UniProt Q389L2: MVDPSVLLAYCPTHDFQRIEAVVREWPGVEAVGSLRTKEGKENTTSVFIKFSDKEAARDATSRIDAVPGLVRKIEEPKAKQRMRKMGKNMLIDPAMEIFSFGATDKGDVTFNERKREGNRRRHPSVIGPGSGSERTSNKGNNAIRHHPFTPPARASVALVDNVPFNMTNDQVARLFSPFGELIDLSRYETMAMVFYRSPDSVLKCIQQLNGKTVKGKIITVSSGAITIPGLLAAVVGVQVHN
UniProt Q383A4: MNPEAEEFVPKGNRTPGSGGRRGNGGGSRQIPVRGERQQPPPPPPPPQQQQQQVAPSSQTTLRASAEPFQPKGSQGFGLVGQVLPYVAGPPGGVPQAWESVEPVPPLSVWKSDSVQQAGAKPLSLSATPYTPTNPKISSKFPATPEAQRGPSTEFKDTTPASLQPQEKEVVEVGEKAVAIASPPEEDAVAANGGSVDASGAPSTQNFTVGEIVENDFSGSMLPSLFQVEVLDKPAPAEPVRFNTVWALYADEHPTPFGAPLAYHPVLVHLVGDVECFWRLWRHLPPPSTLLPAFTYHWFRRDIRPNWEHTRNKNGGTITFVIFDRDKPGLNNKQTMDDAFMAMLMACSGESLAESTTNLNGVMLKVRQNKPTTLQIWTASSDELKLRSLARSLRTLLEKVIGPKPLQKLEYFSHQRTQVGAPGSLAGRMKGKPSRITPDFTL
UniProt Q57UX0: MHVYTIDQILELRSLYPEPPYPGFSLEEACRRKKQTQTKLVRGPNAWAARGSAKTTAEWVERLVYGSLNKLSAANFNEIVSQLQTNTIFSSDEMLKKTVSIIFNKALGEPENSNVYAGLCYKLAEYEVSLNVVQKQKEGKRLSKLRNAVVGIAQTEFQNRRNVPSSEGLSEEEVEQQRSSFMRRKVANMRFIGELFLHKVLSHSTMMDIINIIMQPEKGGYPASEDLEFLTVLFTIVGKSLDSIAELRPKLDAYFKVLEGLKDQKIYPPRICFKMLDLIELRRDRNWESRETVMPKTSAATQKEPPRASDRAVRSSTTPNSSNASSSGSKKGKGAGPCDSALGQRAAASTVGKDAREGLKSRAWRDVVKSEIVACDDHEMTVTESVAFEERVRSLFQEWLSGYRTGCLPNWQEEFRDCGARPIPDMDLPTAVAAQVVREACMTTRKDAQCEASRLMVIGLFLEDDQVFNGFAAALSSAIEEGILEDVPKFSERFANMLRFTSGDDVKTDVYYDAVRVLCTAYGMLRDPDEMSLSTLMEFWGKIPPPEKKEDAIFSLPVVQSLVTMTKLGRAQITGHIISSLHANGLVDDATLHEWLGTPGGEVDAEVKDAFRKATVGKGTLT
UniProt Q57VB4: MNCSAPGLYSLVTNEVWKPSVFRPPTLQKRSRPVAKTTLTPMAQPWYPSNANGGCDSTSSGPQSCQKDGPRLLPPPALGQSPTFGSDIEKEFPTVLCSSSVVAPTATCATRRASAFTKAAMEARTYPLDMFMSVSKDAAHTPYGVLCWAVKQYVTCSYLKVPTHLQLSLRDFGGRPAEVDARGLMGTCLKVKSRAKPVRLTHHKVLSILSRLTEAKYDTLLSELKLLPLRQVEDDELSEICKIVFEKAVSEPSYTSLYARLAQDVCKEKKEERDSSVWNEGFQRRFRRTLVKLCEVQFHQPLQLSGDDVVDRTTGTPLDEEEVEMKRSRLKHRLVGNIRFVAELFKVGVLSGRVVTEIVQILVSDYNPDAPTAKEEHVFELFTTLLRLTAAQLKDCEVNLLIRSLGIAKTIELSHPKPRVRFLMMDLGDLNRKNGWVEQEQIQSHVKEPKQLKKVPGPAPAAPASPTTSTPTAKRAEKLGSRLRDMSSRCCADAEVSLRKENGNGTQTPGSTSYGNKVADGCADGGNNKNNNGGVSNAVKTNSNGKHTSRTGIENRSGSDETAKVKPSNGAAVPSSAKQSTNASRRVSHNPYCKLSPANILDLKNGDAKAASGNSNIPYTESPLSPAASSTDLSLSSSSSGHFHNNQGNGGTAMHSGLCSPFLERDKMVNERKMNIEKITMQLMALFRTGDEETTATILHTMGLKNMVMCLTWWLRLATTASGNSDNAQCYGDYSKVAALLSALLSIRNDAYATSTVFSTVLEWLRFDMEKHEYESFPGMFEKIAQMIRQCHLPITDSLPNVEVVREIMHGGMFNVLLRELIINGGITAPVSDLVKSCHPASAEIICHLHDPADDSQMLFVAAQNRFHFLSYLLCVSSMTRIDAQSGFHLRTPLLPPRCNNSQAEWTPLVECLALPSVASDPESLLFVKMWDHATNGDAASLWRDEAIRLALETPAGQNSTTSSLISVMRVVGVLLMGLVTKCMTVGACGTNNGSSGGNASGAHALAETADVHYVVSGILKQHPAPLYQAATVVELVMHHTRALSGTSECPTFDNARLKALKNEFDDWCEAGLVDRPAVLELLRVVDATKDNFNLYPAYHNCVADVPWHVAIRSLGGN
UniProt Q383M3: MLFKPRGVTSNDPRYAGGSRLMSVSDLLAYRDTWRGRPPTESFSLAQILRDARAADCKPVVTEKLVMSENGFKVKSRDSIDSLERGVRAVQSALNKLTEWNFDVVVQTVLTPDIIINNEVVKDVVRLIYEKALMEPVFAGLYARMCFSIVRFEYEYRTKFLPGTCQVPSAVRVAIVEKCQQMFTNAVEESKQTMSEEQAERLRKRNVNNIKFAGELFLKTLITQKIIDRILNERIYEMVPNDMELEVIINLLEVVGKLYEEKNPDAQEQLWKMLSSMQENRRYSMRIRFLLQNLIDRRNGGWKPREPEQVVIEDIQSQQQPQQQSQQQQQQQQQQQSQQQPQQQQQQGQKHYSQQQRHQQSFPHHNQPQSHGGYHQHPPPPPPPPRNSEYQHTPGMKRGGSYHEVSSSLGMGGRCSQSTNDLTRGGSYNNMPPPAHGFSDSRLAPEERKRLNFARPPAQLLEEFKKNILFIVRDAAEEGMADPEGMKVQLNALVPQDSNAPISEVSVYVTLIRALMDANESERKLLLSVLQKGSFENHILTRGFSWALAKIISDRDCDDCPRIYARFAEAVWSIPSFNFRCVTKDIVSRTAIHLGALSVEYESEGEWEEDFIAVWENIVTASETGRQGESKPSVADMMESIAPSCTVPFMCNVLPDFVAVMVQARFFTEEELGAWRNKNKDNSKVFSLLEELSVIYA
UniProt Q38F76: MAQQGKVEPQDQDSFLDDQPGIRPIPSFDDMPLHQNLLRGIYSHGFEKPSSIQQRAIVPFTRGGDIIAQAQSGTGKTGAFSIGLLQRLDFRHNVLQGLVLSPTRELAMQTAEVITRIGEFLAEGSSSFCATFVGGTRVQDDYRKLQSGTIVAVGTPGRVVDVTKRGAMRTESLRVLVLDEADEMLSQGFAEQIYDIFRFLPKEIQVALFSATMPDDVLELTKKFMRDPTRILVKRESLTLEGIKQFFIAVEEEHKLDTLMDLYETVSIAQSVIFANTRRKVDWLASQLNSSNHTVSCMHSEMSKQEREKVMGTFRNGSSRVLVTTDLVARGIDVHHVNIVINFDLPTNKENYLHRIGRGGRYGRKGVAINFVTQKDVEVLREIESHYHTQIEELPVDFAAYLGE

In PMC6075789, “Comparative proteomics of the two T. brucei PABPs suggests that PABP2 controls bulk mRNA” (PLoS Neglected Tropical Diseases, 2018):

Legend:
[1] = target: PABP2-eYFP (T. brucei) (UniProt O96971); experiment: affinity purification with mass spectrometry; As a1, results told for the low salt buffer: 20 mM HEPES pH 7.4, 50 mM NaCl, 1 mM MgCl2, 100 uM CaCl2, 0.1% CHAPS
[2] = target: PABP2-eYFP (T. brucei) (UniProt O96971); experiment: affinity purification with mass spectrometry; PABP-eYFP captured from lysate of cryomilled procyclic cells with polyclonal anti-GFP llama antibodies on Dynabeads; low salt and high salt buffer, two replicates each; high confidence list: at least two-fold enriched over wild type control cells in all four experiments; label free quantification
[3] = target: PABP1-eYFP (T. brucei) (UniProt Q38E63); experiment: as above
[4] = target: PABP1-eYFP (T. brucei) (UniProt Q38E63); experiment: affinity purification with mass spectrometry; As a1, results told for the low salt buffer: 20 mM HEPES pH 7.4, 50 mM NaCl, 1 mM MgCl2, 100 uM CaCl2, 0.1% CHAPS

| binding [1] | binding [2] | binding [3] | Substance | further results |
| --- | --- | --- | --- | --- |
| binds |  |  | eIF4E5 (from UniProt Q38B99) |  |
|  | binds |  | zinc finger protein ZC3H28 (from UniProt Q38E49) |  |
|  | binds | binds | CCCH type zinc finger protein ZC3H41 (from UniProt Q386W1) |  |
|  | no binding | binds | RNA binding protein RBP23 (from UniProt Q389L2) |  |
| binds |  |  | eIF4G5 (from UniProt Q57VY5) |  |
| binds |  |  | eIF4E3 (from UniProt Q383A4) |  |
|  | binds |  | Tb927.11.6720, an mRNA cap guanine-N7 methyltransferase (TbG1-IP) (from UniProt Q384Z7) |  |
|  | binds | binds | eIF4G3 (from UniProt Q57UX0) |  |
|  | binds |  | RNA-binding protein Tb927.11.350 (G1-IP2) (from UniProt Q387L6) |  |
|  | binds | binds | eIF4E4 (from UniProt Q585M4) |  |
| binds |  |  | eIF4E6 (from UniProt Q57V43) |  |
|  |  | binds | PABP2 (untagged, endogenous) (from UniProt O96971) |  |
| binds |  |  | eIF4E1 (from UniProt Q386T3) |  |
|  | binds |  | eIF4G1 (from UniProt Q57VB4) |  |
| binds |  |  | eIF4G4 (from UniProt Q383M3) |  |
|  |  |  | eIF4A1 (from UniProt Q38F76) | binding [4]: binds |

Results are given in words; binding and its absence hold for the method and conditions named. Binding seen in cells or lysates may run through a third protein. These calls come from enrichment with a bait or labelling near it, and not all partners need be listed. For some assays here: No binding means not detected with the bait.
